Laboratory results taken from publication PMC5974925.

What was measured:
[1] = biological target: T1, SbbR-His6 (Streptomyces bingchenggensis BC04) (UniProt D7C006); experiment: DNase I footprinting; details: Footprinting: 200 ng probe, 50 ul, 25 C 25 min, recombinant protein, residues 34-239, protein details: C-terminal His6 (pET23b, NdeI/XhoI), probe letters rebuilt from the primers and the …
T1 sequence (looked up): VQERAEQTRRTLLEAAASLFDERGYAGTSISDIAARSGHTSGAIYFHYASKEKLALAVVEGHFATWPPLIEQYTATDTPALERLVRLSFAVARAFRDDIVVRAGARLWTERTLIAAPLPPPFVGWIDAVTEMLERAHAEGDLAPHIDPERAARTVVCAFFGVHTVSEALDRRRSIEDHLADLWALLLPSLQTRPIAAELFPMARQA

[2] = biological target: T1, SbbR-His6 (Streptomyces bingchenggensis BC04); experiment: EMSA; details: EMSA: 20 mM Tris base, 2 mM DTT, 5 mM MgCl2, 0.5 ug calf BSA, 5% glycerol, 20 ul, 10 ng probe, 25 C 25 min (poly[d(I-C)] 500 ng when necessary), pH not stated, recombinant protein, residues 34-239, protein details: C-terminal His6 (pET23b, NdeI/XhoI), probe letters rebuilt from the primers and the genome
[3] = concentration-dependent, not dissociated by 500-fold poly(dI-dC)

“GGCCCTCCAGGACTGCTGTCACGGATCATGACTGGTTCCGGACCGCAGTGTGTGCGGGTTCGCTCGAGTCCCGGCGGAGTCGCCCTCGTACGTCGGCGGAGCGCCACTCGCCGCCCTCCGCCGGCCCGGGCTAATACACCCAGGTATGCAGCAATGGAATAAGCGACCCCATGCCACTTATTACTGAGATCAACTTGTGGCTCACATCACAGGCCACATTTCCGCATCGCCATGGAATGATGCCACGGTGTTCGCCTCAAGGTTTCGGCCAGCCGTAACAAGGGGAGACAAGAAATGCCGACGATGATTGTCATCGGACATAGGGACGGTCTCGACCACGCACTGCAGCGCCGAGGTTTGGAGCCTTTCTATATCGTGCAGGCGCCGGTGAACACGCCGGCGGGTCGGCGTTTCAGGCGTGTCATCGACATGG (double strand) [PmilR, FAM-labeled]”: binds ([1]; label: 5' FAM (S33), HEX-named reverse primer (S34)).
“GGCCCTCCAGGACTGCTGTCACGGATCATGACTGGTTCCGGACCGCAGTGTGTGCGGGTTCGCTCGAGTCCCGGCGGAGTCGCCCTCGTACGTCGGCGGAGCGCCACTCGCCGCCCTCCGCCGGCCCGGGCTAATACACCCAGGTATGCAGCAATGGAATAAGCGACCCCATGCCACTTATTACTGAGATCAACTTGTGGCTCACATCACAGGCCACATTTCCGCATCGCCATGGAATGATGCCACGGTGTTCGCCTCAAGGTTTCGGCCAGCCGTAACAAGGGGAGACAAGAAATGCCGACGATGATTGTCATCGGACATAGGGACGGTCTCGACCACGCACTGCAGCGCCGAGGTTTGGAGCCTTTCTATATCGTGCAGGCGCCGGTGAACACGCCGGCGGGTCGGCGTTTCAGGCGTGTCATCGACATGG (double strand) [PmilR]”: binds more weakly ([2]; 0.2 uM SbbR + ethyl acetate extract of BC04 (dissociates complex)); binds more weakly ([2]; 0.2 uM SbbR + high concentration of ethyl acetate extract of sbbA deletion strain (dissociates complex)); binds [2, 3].
“GGTTGTAGTGCCGCTCGTAGGCGGCGAGGACGTGGCGGGCGTGGGCATCGTTCATGATGAGGACGTGGTCGAGGGCTTCGCGGCGGATGCTGCCGATGATGCGTTCGCAGTGCGCGTTCATGCGGGGGGTCCGGGGGAGCGAGATCGCCGCGCTCATTTCAGGGCCCCTCGCCGTAAGGGGCTTGGAGAATGTCTCGGGGTGGTCATGGCGCTGATTGACGGCGCCATGAGTGTAGGGGCTTCATCGATGATGGCCATCTAGTGGTGGACTTCGACCGAGGCAAAAGATCAACGGGGGATTTTTGCAAATCTTTTGCAGTTGTCACTGTTCTGCCCTCTTTGTCATGCCTTCAAGGCTCCCGTAGGGGAATTTTGTGTGCGGTCGGCGAAATGCGGGGGAAAGATTCAGTATGCTCATCGGTAGGGAATTAGAACTCAGTAAATTGAAATCTGCCCTGGCTGAGTCTGCGACGAACAGAGCGAGAACCGTTGTCATCGAAGGCCCGGTCGGCTGTGGGAAGACCGAGCTGCTGGAAACCCTGGCCACCAGTGCCGTGGCCAGTGACGCGTTGGTTCTGAGAGCGACCGCACTGCCCTGGGAGATTTCTCTGCCCCTCGGTGTCATGCGGCAGTTGGTCGACAGCCCGTCGCTGCCCGAGGAATCGGGGCGGCGTCTCCGGGAGCTGCTGGACGAGGACGAGGCGGCCGCCGATCCGGAGTCGGCCGACGTGCTGGCCCCGGTCGGCGCCGCCCGTATGCAGAAGGTCTGCGCGGCTCTGCACGAAGTGGTCCGGGACC (double strand) [Psbi_01376]”: binds ([2]; 0.1-0.2 uM SbbR).
“TCCAGAGCACCCGTGAAACCATGCGCGACCACGATGGCCGGACCCGGGGCCGGGTCCGTGCCCGACCCCGGTCCATACGGCTGAAACGGCGTGTACGCGGCCTCGATCGCCACCCCGTCGTCCGTCAACAACCTGGTCGGCCGTCCGCGCTCGGTGATCAAGGAAACATGAGGCGGTGCGGATACAGCCTTAATCCCACGTGTCATGTGGGTTATTCTTCTGGGAAGAGGATCCGGGCAAAGCAGCCCCCGGGTCCTTTTGTGCTTTCAGGCGCGTTCCGCGCGTTTGAGCGCACACGCGCTCCAGGGCGCGGAGCCGCAGCCCGGCACAAAGTGGTGCTGAGTCGCGTAAAGCAGTACACACGAAGCAGTGCGCACGAAGTAGTGCGAGTCAGCCAGGTACGAAGCACAGGTACGAAGCAGTAGCCGCATACTCCCCCAGGCCGGGCCTGGGAGGTGCCCCCTCTCGCAGGGACCGAGGAGGAACCGACGTAATGGGCGAGCGAAGCGTGTACGACCATAGGACGACGTCCGGGGCGGGTGATCACCGATGAGCTCCCTCCTCCTGCTGACCAACGCGCTGCAGCCCTCGACGGAGGTGCTTCCCGCGCTCGGGCTGCTGCTGCACGGCGTGCGGGTGGCCCCGGCCGAGGGACCGGCCCTGGTGGACACCCCCGGGGCCGATGTGATCCTCATCGACGGCCGCCGCGATCTGCCCCAGGTGCGC (double strand) [Psbi_05051]”: binds ([2]; 0.1-0.2 uM SbbR).
“TCGCGTAGTGGAAGTAGATGGCGCCGCTGGTGTGGCCGGACCGGGCGGCGATATCGCTGATGCTGGTGCCGGCGTAGCCCCGTTCGTCGAAGAGGGAAGCCGCCGCTTCCAGGAGGGTTCGGCGTGTCTGCTCGGCCCGCTCTTGCACGTGGTGTCCGTCCTCGTTCCGTCGCGTGCGGTGCGTTGTCGGGGTGAACTTAGCGGACTTGTCGCATGTCATGGAGGTGAAGACCCACAGGTCCATCATTACTAGTATTTTATGGCGATCATTGGTGAGGCGTGTGGCGTCCCGGAGCCGTGGGAGCTCGTGGCGCGGCGGCTGAGCTGGTCCCGCACCGTGGCGCGCGAGGCGGTGCACCGCGCCTCGGTGGCCGAAGTGCTGCTCACCGACGTCCGCGCACTGGGTGGCGGCCGGTTCGTGGCCGCGGTGCAGTGGCCACGCTCCCATCCCACGTTCCCGCATG (double strand) [PR-A, FAM-labeled]”: binds ([1]; label: 5' FAM (S35), HEX-named reverse primer (S36)).
“TCGCGTAGTGGAAGTAGATGGCGCCGCTGGTGTGGCCGGACCGGGCGGCGATATCGCTGATGCTGGTGCCGGCGTAGCCCCGTTCGTCGAAGAGGGAAGCCGCCGCTTCCAGGAGGGTTCGGCGTGTCTGCTCGGCCCGCTCTTGCACGTGGTGTCCGTCCTCGTTCCGTCGCGTGCGGTGCGTTGTCGGGGTGAACTTAGCGGACTTGTCGCATGTCATGGAGGTGAAGACCCACAGGTCCATCATTACTAGTATTTTATGGCGATCATTGGTGAGGCGTGTGGCGTCCCGGAGCCGTGGGAGCTCGTGGCGCGGCGGCTGAGCTGGTCCCGCACCGTGGCGCGCGAGGCGGTGCACCGCGCCTCGGTGGCCGAAGTGCTGCTCACCGACGTCCGCGCACTGGGTGGCGGCCGGTTCGTGGCCGCGGTGCAGTGGCCACGCTCCCATCCCACGTTCCCGCATG (double strand) [PR-A]”: binds [2, 3].
“TGGCGTGGCGAGATCGATCCGGCCGCGGCCTCCGGGAGGAACGGCTGATAGGTCATGTACGGCTCGGGGTCGACCACGATGACCTGTACGTCGCCTTGCCCCAGCTCCCTCTTCAGCTTCCGCTGGAGGCGCAGCGCGGTGTACATCCCGACGTAGCCACCGCCGACAACGAGAATGCGCGCAGGTTCCTTCACCCTCCCATGAGGCACGCACAGCCGCGGTTTGTCCACAGGCCCGACGAATTGTGTGACCGGCGGTTTCGACGCGCCCCGCCGCGCCCATTCGGTCAAGCGTACGGAAGGTGCGCAGGTCAGTAGGGGGGCGCGGGGTGGTGGGCGGGTGGGGAAGCGCGGACGGGCGGTGCGGTACTCCGAACGGGGGTCGATCTGTCCGGACCTACCCCCTTCTTTCTTGACCGGCGCTCAACTATGTTCGTACTCCGTCGGGGTCGAGACTGCCCCGGCGTTCTGGGCGGGGAGTCTCCGGGGGGAGACGTCATAACCGGGGGATCACTATGCAGCTTCAGGGTTCTCATTGGTCGTCAGCCGTCGCGTCGGCGGACGGTGCCGGCGGCCGGAACACTCCGCTGCGCGTGGACGCGCAGCGCAATCTCGAGCATGTGCTGCGGGCGGCGCGCGAGGTCTTCGGGGAGCTGGGGTACGGCGCTCCCATGGAGGACGTCGCGCGGCGCGCGCGGGTCGGGGTGGGCACCGTCTATCGGCGCTTCCCCAGCAAGGACGTCCTGGTCCGTCGTATAGCCGAGG (double strand) [Psbi_05779]”: binds ([2]; 0.1-0.2 uM SbbR).

Protein sequences can lack the tags named with them. For part of these data: Construct, isoform or probe ends are uncertain for at least one entry. For part of these data: Weaker means in comparison with the reference protein, sequence or condition of that experiment.
